Measurements: US20180264146A1, “NOVEL IMAGING COMPOUNDS” (AC IMMUNE S.A., priority 2015, published 2018)
At least one compound was matched to its structure with a doubt left.

Test system: tau tangles on AD brain sections
Experiment: Direct staining of human Alzheimer's disease brain sections (fluorescence based assay)
Type: binding
Settings: 100 μM, human AD brain sections (amygdala, Braak stage V-VI)

## F[C@@H]1CCN(c2ccc3c(n2)[nH]c2ccncc23)C1 [Example 6]
  direct staining of tau tangles on AD brain sections: weak direct staining
